# “And” between values parts separate entries of the source, which are not always exact repeats. Equal values may be shown once. Some of the results follow. Shown are side measurements of this screen, not its main read-out; they come without a call. Most of these compounds were active or inconclusive in the main read-out, so they are no random draw. Words in brackets tell the shape of the fitted curve; partial curves, single points and poor fits give uncertain potencies.
# Assay: qHTS Assay for Lipid Storage Modulators in Drosophila S3 Cells;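 on cell number change: cells counted by Cell Tracker Red CMTPX staining in the red channel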
# Conditions: BODIPY lipid droplet fluorescence, 18-24 h; for cell number change: measured here: cell count max response, cells fed with added oleic acid
# How it was run: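 Drosophila S3 cells loaded with oleic acid (400 uM, as added) and compounds at several concentrations; lipid droplets imaged by 488-nm laser-scanning cytometry, 500–530 nm intensity and object ratio to cell channel. Percent activity normalized to 20 uM Triacsin C.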
# [1] = measured here: cell number channel AC50, cells fed with added oleic acid
# [2] = measured here: lipid fluorescence (Fed channel) AC50, cells fed with added oleic acid
Compound,cell number change,AC50 [1],AC50 [2]
CN(Cc1ccco1)C(=O)C1CCC(=O)N1Cc1ccc(F)cc1 (stereo unspecified),12.9%,,
CC(=O)c1cccc(NC(=O)CSc2nc(N3CCOCC3)nc(N3CCOCC3)n2)c1,6.19%,,
CN(C)S(=O)(=O)c1ccc(Cl)c(C(=O)NNC(=O)Cn2ccc(C(F)(F)F)n2)c1,-15.7%,,
CC(C)OC(=O)CSc1nnc(CNc2ccc(Cl)cc2)n1Cc1ccccc1,-37.3%,"29.1 µM [falling, partial curve, poor fit]","32.6 µM [falling, partial curve]"
CCOC(=O)c1c(NC(=O)Cn2nnc(-c3ccc(Cl)cc3)n2)sc(C)c1C,-13.1%,,"6.51 µM [rising, single point]"
Cc1cccc(NC(=O)/C=C/c2ccc3c(c2)OCO3)n1,9.54%,,"0.411 µM [rising, full curve]"
Cc1ccc(-c2noc(CN3C(C)CCCC3C)n2)cc1 (stereo unspecified),-31.6%,,"29.1 µM [falling, single point]"
COc1ccc(CCc2nnc(CCC(=O)N(C)Cc3ccnc4ccccc34)o2)cc1,-24.2%,,"20.6 µM [falling, single point]"
O=c1[nH]cccc1-c1nc2ccccc2n1Cc1ccccc1F,12.1%,"4.11 µM [rising, single point]","6.51 µM [rising, partial curve, poor fit]"
CCC(=O)NC(c1cc(Cl)c2cccnc2c1O)C1CC1 (stereo unspecified),3.62% and 25.2%,,"13 µM [rising, partial curve]"
O=C(O)CCc1nc(-c2ccccc2)no1,-2.56%,,"6.51 µM [rising, single point]"
CC1=CN2C(=N)/C(=C/c3ccc([N+](=O)[O-])o3)C(=O)N=C2S1,,,"13 µM [falling, partial curve]"
S=C1NC[C@H](CC2CCCCC2)N1CC1CCCCC1,-30.9%,"1.46 µM [falling, partial curve]","2.91 µM [falling, partial curve]"
CC(C)(C)c1cccc(OCCCSc2ncccn2)c1,-14.3%,,"0.82 µM [rising, single point]"
COc1cccc(NC(=S)N2CCc3cc(OC)c(OC)cc3C2)c1,-13%,,"20.6 µM [falling, single point]"
CCN(CCC(=O)Nc1cc(OC)cc(OC)c1)Cc1ccccc1,0.711%,,
CN(CC(=O)Nc1ccc(Cl)c(C(F)(F)F)c1)Cc1cc(=O)n2ccsc2n1,57%,"9.2 µM [rising, partial curve, poor fit]","4.11 µM [rising, full curve]"
COc1ccc(C(C(=O)NC(C)(C)C)N(CCC(C)C)C(=O)CCC(=O)Nc2cc(C)on2)cc1 (stereo unspecified),-22.4%,,
CCOc1ccc(N2C(=O)CC(NCc3ccc(F)cc3)C2=O)cc1 (stereo unspecified),31.6%,"5.17 µM [rising, single point]",
c1ccc2c(c1)nc1n2CCS1,-11.3%,,
Cc1cc(C)nc(NS(=O)(=O)c2ccc(NS(=O)(=O)c3ccccc3)cc2)n1,12.5%,,"29.1 µM [falling, single point]"

Compound,cell number change,AC50 [1],AC50 [2]
Cc1cc2ccccn2c1C(=O)c1ccc([N+](=O)[O-])cc1[N+](=O)[O-],,,"16.4 µM [falling, partial curve]"
COc1ccc(C)cc1S(=O)(=O)N1CCN(S(=O)(=O)c2cc(C)ccc2OC)CC1,65.4%,"7.31 µM [rising, partial curve, poor fit]","7.31 µM [rising, partial curve]"
CCc1nc2c(cnn2-c2ccc(F)cc2)c(=O)n1-c1ccc(N2CCC(C)CC2)cc1,2.39%,,"4.61 µM [rising, single point]"
C=CCC1(O)C(=O)N2C(=C1C(=O)N1CCOCC1)c1ccccc1CC2(C)C (stereo unspecified),11.9%,,
COC(=O)c1[nH]c2c(c1C)C(=O)CC(c1ccc(C)cc1)C2 (stereo unspecified),19%,"0.411 µM [rising, full curve]","0.184 µM [rising, full curve, poor fit]"
CCN(CC)CCOc1nnc(-c2ccc(C)cc2)c2ccccc12,126%,"13 µM [rising, partial curve]",
Brc1ccccc1-c1ccccc1,-7.8%,,
OCc1c(OCc2cccc(F)c2)ccc2ccccc12,-17.9%,,
COc1ccc(CCn2c(N3CCOCC3)nc3c2c(=O)[nH]c(=O)n3C)cc1,54.3%,"2.59 µM [rising, full curve]",
CC(C)C[C@@H](CO)N1CCN(Cc2ccc([N+](=O)[O-])cc2)CCC1=O,4.19%,,"5.8 µM [rising, full curve]"
C=CCn1c(O)c(N=NC(=O)CNC(=O)c2cccs2)c2ccccc21,21%,,"6.51 µM [rising, partial curve]"
Cc1c(C(=O)Nc2ccc3c(c2)OCO3)oc2ccccc12,-17.1%,,"0.206 µM [falling, single point]"
CCCC(=O)Nc1nnc(SCC(=O)Nc2nc(C)cs2)s1,56.4%,"14.6 µM [rising, partial curve, poor fit]",
Cc1ccccc1S(=O)(=O)N1CC(C(=O)O)=CC[C@H]1c1ccc(Cl)cc1,-12.2%,,"18.4 µM [rising, single point]"
Cc1ccc(-n2nnnc2SCC(=O)c2c(N)n(C3CC3)c(=O)[nH]c2=O)cc1,3.35%,,"9.2 µM [rising, partial curve]"
Cn1nc(CC(=O)NC2CCCCC2)c2ccccc2c1=O,-22.2%,,
CC(C)COCC(O)CCC(=O)NNC(=S)Nc1ccccc1 (stereo unspecified),-25.4%,,"0.0291 µM [falling, full curve, poor fit]"
CN(Cc1ccccc1)C(=O)c1ccc(NC(=O)Cc2cccc(NC(=O)C3CCCN(C(=O)C4CCCCC4)C3)c2)cc1 (stereo unspecified),13.3%,"5.17 µM [falling, single point]",
O=C(O)c1ccc2c(c1)C(=O)N([C@]1(C(=O)O)CC1c1ccccc1)C2=O (stereo partly specified),-27.5%,,"0.0731 µM [falling, full curve, poor fit]"
CCc1nnc(NS(=O)(=O)c2ccc(N/C=C\C(=O)c3ccc4ccccc4c3)cc2)s1,11%,,"10.3 µM [rising, partial curve, poor fit]"

# Pulled by structure from the list above:
Compound,cell number change,AC50 [1],AC50 [2]
Cc1ccccc1S(=O)(=O)N1CC(C(=O)O)=CC[C@H]1c1ccc(Cl)cc1,-12.2%,,"18.4 µM [rising, single point]"
CCc1nnc(NS(=O)(=O)c2ccc(N/C=C\C(=O)c3ccc4ccccc4c3)cc2)s1,11%,,"10.3 µM [rising, partial curve, poor fit]"
